In the supplement of paper PMC10849652:
Some of the results follow.

By UniProt entry, the sequences of proteins in these tests, tags left out. Where a name states a change or a piece, a line headed by the entry shows the natural chain unless it says otherwise.
UniProt Q567V2: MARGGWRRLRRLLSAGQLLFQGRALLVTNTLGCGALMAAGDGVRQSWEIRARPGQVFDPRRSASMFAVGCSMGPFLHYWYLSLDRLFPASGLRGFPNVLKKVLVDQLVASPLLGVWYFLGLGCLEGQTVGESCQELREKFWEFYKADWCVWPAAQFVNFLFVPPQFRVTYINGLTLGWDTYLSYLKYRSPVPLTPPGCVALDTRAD
UniProt Q6WCQ1: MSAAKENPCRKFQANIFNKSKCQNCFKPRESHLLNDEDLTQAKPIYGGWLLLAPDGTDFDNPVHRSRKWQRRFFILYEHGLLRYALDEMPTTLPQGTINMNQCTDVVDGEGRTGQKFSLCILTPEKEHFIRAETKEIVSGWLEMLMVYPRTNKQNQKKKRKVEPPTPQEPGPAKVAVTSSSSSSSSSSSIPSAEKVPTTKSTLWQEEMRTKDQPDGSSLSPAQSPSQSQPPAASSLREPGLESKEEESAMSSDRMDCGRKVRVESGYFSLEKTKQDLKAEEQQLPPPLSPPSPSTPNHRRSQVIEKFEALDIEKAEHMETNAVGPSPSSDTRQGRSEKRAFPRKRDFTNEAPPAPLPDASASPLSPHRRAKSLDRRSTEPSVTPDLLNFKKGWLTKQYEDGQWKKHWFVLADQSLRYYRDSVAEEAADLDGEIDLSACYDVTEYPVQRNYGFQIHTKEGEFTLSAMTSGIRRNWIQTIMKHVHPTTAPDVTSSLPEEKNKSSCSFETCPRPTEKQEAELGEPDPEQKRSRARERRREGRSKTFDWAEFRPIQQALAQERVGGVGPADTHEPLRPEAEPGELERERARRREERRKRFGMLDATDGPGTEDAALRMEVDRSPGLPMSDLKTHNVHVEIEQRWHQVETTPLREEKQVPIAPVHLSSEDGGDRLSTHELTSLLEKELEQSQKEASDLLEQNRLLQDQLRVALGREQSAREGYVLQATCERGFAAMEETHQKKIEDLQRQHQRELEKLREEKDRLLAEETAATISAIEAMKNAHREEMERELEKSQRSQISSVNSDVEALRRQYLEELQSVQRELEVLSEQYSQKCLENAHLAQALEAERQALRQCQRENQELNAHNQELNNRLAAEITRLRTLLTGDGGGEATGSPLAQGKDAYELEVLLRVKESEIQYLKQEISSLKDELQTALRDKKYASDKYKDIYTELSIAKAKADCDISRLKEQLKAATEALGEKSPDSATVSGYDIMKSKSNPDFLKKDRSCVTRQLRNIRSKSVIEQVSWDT
UniProt Q99547: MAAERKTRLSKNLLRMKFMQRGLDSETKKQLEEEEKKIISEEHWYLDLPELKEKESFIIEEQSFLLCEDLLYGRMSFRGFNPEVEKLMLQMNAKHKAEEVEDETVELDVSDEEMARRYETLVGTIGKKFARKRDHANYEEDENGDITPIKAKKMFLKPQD
UniProt Q14165: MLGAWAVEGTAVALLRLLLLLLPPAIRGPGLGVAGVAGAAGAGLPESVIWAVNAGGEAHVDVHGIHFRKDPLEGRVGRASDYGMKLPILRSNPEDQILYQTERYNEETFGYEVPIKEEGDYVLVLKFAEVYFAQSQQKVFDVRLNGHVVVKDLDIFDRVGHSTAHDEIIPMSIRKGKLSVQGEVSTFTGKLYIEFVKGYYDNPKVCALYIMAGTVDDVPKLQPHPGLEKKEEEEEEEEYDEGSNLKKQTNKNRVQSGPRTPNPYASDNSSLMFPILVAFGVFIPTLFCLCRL
UniProt Q8N4V1: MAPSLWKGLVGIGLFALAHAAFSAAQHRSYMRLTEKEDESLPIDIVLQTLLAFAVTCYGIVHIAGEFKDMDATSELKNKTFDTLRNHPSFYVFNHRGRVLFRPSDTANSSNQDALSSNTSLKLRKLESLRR

Legend:
Test in all cases: log2 fold change, soluble protein after heating vs DMSO (PISA); higher = thermal stabilisation; K562 cells, 10 uM, 30 min; active = over 0.2 and 3.5 SD of the protein, either way, in both replicates (recomputed)
[1] = compound: CS(=O)(=O)c1ccc(-c2cnc(N)c(C(=O)Nc3ccccc3)n2)cc1
Procedure, shortened: (§1)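 Soluble protein was defined as the supernatant after 21,000xg for 90 min. It came from K562 cells at 2×10^6 cells/mL given 10 μM compound for 30 min, heated in aliquots for 3 min across 48°C-58°C, pooled, and extracted in PBS with 0.5% NP-40 at 4°C, and was quantified by TMTpro 16plex LC-MS/MS with equalised channel sums. Thermal stability against control samples, from duplicates, is reported as log2 fold change.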

crizotinib = compound: C[C@@H](Oc1cc(-c2cnn(C3CCNCC3)c2)cnc1N)c1c(Cl)ccc(F)c1Cl [crizotinib]
Procedure, shortened: as §1

[2] = compound: C[C@@H]1COCCN1C2=NC(=NC(=C2)C3(CC3)S(=O)(=O)C)C4=C5C=CNC5=CC=C4
Procedure, shortened: as §1

[3] = compound: C[C@H](C1=CC=C(C=C1)C(=O)NC2=C3C=CNC3=NC=C2)N
Procedure, shortened: as §1

duvelisib = compound: C[C@H](Nc1ncnc2nc[nH]c12)c1cc2cccc(Cl)c2c(=O)n1-c1ccccc1 [duvelisib]
Procedure, shortened: as §1

gandotinib = compound: Cc1cc(Nc2cc(CN3CCOCC3)c3nc(C)c(Cc4ccc(Cl)cc4F)n3n2)n[nH]1 [gandotinib]
Procedure, shortened: as §1

tozasertib = compound: Cc1cc(Nc2cc(N3CCN(C)CC3)nc(Sc3ccc(NC(=O)C4CC4)cc3)n2)n[nH]1 [tozasertib]
Procedure, shortened: as §1

[4] = compound: Cc1cc(SCc2sc(-c3ccc(C(F)(F)F)cc3)nc2C)ccc1OCC(=O)O
Procedure, shortened: as §1

doramapimod = compound: Cc1ccc(-n2nc(C(C)(C)C)cc2NC(=O)Nc2ccc(OCCN3CCOCC3)c3ccccc23)cc1 [doramapimod]
Procedure, shortened: as §1

ispinesib = compound: Cc1ccc(C(=O)N(CCCN)[C@@H](c2nc3cc(Cl)ccc3c(=O)n2Cc2ccccc2)C(C)C)cc1 [ispinesib]
Procedure, shortened: as §1

bafetinib = compound: Cc1ccc(NC(=O)c2ccc(CN3CC[C@H](N(C)C)C3)c(C(F)(F)F)c2)cc1Nc1nccc(-c2cncnc2)n1 [bafetinib]
Procedure, shortened: as §1

[5] = compound: Cc1cccc(CC(=O)N2CCc3c2ccc(-c2cn(C)c4ncnc(N)c24)c3F)n1
Procedure, shortened: as §1

nilotinib = compound: Cc1cn(-c2cc(NC(=O)c3ccc(C)c(Nc4nccc(-c5cccnc5)n4)c3)cc(C(F)(F)F)c2)cn1 [nilotinib]
Procedure, shortened: as §1

[6] = compound: Cc1nc(Nc2n[nH]c3c2CN(C(=O)N[C@H](CN(C)C)c2ccccc2)C3(C)C)c2sccc2n1
Procedure, shortened: as §1

dasatinib = compound: Cc1nc(Nc2ncc(C(=O)Nc3c(C)cccc3Cl)s2)cc(N2CCN(CCO)CC2)n1 [dasatinib]
Procedure, shortened: as §1

[7] = compound: Cc1ncc(-c2ccnc(Nc3ccc(S(C)(=O)=O)cc3)n2)n1C(C)C
Procedure, shortened: as §1

[8] = compound: Cn1cc(-c2ccc3c(c2)CCN3C(=O)Cc2cccc(C(F)(F)F)c2)c2c(N)ncnc21
Procedure, shortened: as §1

[9] = compound: Cn1cc(-c2ccc3nnc(C(F)(F)c4ccc5ncccc5c4)n3n2)cn1
Procedure, shortened: as §1

tipifarnib = compound: Cn1cncc1[C@@](N)(c1ccc(Cl)cc1)c1ccc2c(c1)c(-c1cccc(Cl)c1)cc(=O)n2C [tipifarnib]
Procedure, shortened: as §1

mubritinib = compound: FC(F)(F)c1ccc(/C=C/c2nc(COc3ccc(CCCCn4ccnn4)cc3)co2)cc1 [mubritinib]
Procedure, shortened: as §1

Measured: log2 fold change

MRPL54 (UniProt Q6P161)
inactive: [1] -0.038 | crizotinib -0.212 | [2] -0.061 | [3] 0.21 | duvelisib -0.08 | gandotinib 0.057 | tozasertib 0.043 | [4] -0.059 | doramapimod 0.1 | ispinesib -0.26 | bafetinib -0.062 | [5] 0.065 | nilotinib 0.062 | [6] 0.082 | dasatinib 0.115 | [7] -0.089 | [8] -0.086 | [9] -0.019 | tipifarnib 0.271 | mubritinib -0.053

MRPL28 (UniProt Q13084)
inactive: [1] 0.031 | crizotinib 0.002 | [2] -0.039 | [3] 0.208 | duvelisib -0.033 | gandotinib 0.185 | tozasertib -0.092 | [4] 0.101 | doramapimod 0.072 | ispinesib -0.104 | bafetinib 0.156 | [5] 0.118 | nilotinib -0.02 | [6] 0.176 | dasatinib 0.006 | [7] 0.015 | [8] -0.112 | [9] 0.021 | tipifarnib 0.066 | mubritinib 0.042

MRPL12 (UniProt P52815)
inactive: [1] 0.005 | crizotinib 0.243 | [2] 0.162 | [3] -0.098 | duvelisib 0.05 | gandotinib 0.119 | tozasertib 0.088 | [4] -0.037 | doramapimod 0.087 | ispinesib 0.091 | bafetinib -0.018 | [5] -0.001 | nilotinib -0.026 | [6] 0.022 | dasatinib 0.115 | [7] -0.033 | [8] 0.015 | [9] 0.171 | tipifarnib 0.099 | mubritinib -0.036

MPV17L2 (UniProt Q567V2)
inactive: [1] -0.014 | crizotinib 0.174 | [2] 0.031 | [3] -0.126 | duvelisib 0.082 | gandotinib -0.023 | tozasertib -0.038 | [4] -0.048 | doramapimod -0.044 | ispinesib 0.147 | bafetinib 0.03 | [5] -0.068 | nilotinib 0.001 | [6] 0.063 | dasatinib 0.041 | [7] 0.022 | [8] 0.047 | [9] 0.002 | tipifarnib 0.086 | mubritinib -0.044

MPRIP isoform 2 (UniProt Q6WCQ1)
inactive: [1] 0.003 | crizotinib -0.081 | [2] 0.028 | [3] -0.259 | duvelisib 0.007 | gandotinib 0.024 | tozasertib -0.046 | [4] -0.079 | doramapimod 0.032 | ispinesib -0.038 | bafetinib -0.05 | [5] -0.072 | nilotinib 0.033 | [6] -0.202 | dasatinib -0.062 | [7] -0.011 | [8] 0.007 | [9] 0.023 | tipifarnib 0.118 | mubritinib 0.036

MRPL37 (UniProt Q9BZE1)
inactive: [1] 0.071 | crizotinib -0.017 | [2] 0.012 | [3] 0.181 | duvelisib 0.016 | gandotinib 0.017 | tozasertib -0.047 | [4] 0.102 | doramapimod 0.126 | ispinesib -0.097 | bafetinib 0.226 | [5] 0.005 | nilotinib -0.099 | [6] 0.144 | dasatinib -0.011 | [7] 0.011 | [8] -0.136 | [9] -0.017 | tipifarnib 0.091 | mubritinib 0.065

MPHOSPH6 (UniProt Q99547)
inactive: [1] -0.044 | crizotinib -0.056 | [2] -0.122 | [3] 0.143 | duvelisib -0.05 | gandotinib 0.119 | tozasertib -0.006 | [4] 0.059 | doramapimod 0.076 | ispinesib -0.248 | bafetinib 0.08 | [5] -0.063 | nilotinib -0.062 | [6] 0.06 | dasatinib 0.016 | [7] 0.012 | [8] -0.07 | [9] -0.128 | tipifarnib 0.077 | mubritinib -0.058

MRPL48 (UniProt Q96GC5)
inactive: [1] 0.115 | crizotinib 0.021 | [2] -0.167 | [3] 0.211 | duvelisib -0.002 | gandotinib -0.111 | tozasertib -0.019 | [4] 0.148 | doramapimod 0.135 | ispinesib -0.126 | bafetinib 0.221 | [5] 0.079 | nilotinib -0.22 | [6] 0.2 | dasatinib 0 | [7] 0.118 | [8] -0.068 | [9] -0.066 | tipifarnib -0.002 | mubritinib 0.041

MRPL2 (UniProt Q5T653)
inactive: [1] 0.086 | crizotinib 0.05 | [2] -0.194 | [3] 0.267 | duvelisib -0.104 | gandotinib 0.013 | tozasertib 0.012 | [4] 0.083 | doramapimod 0.107 | ispinesib -0.252 | bafetinib 0.182 | [5] 0.106 | nilotinib -0.189 | [6] 0.112 | dasatinib 0.023 | [7] 0.051 | [8] -0.099 | [9] -0.011 | tipifarnib 0.075 | mubritinib 0.062

MRPL11 (UniProt Q9Y3B7)
inactive: [1] -0.03 | crizotinib -0.001 | [2] -0.025 | [3] 0.231 | duvelisib -0.004 | gandotinib 0.127 | tozasertib 0.051 | [4] 0.136 | doramapimod 0.066 | ispinesib -0.112 | bafetinib 0.247 | [5] 0.047 | nilotinib -0.096 | [6] 0.248 | dasatinib 0 | [7] 0.004 | [8] -0.107 | [9] -0.04 | tipifarnib 0.042 | mubritinib 0.101

Fetched one by one from above, 2 records:
MRPL2 (UniProt Q5T653)
inactive: [1] 0.086 | crizotinib 0.05 | [2] -0.194 | [3] 0.267 | duvelisib -0.104 | gandotinib 0.013 | tozasertib 0.012 | [4] 0.083 | doramapimod 0.107 | ispinesib -0.252 | bafetinib 0.182 | [5] 0.106 | nilotinib -0.189 | [6] 0.112 | dasatinib 0.023 | [7] 0.051 | [8] -0.099 | [9] -0.011 | tipifarnib 0.075 | mubritinib 0.062

MRPL48 (UniProt Q96GC5)
inactive: [1] 0.115 | crizotinib 0.021 | [2] -0.167 | [3] 0.211 | duvelisib -0.002 | gandotinib -0.111 | tozasertib -0.019 | [4] 0.148 | doramapimod 0.135 | ispinesib -0.126 | bafetinib 0.221 | [5] 0.079 | nilotinib -0.22 | [6] 0.2 | dasatinib 0 | [7] 0.118 | [8] -0.068 | [9] -0.066 | tipifarnib -0.002 | mubritinib 0.041

Continued.

MLEC (UniProt Q14165)
inactive: [1] 0.013 | crizotinib 0.049 | [2] -0.007 | [3] 0.057 | duvelisib -0.005 | gandotinib 0.027 | tozasertib 0.011 | [4] 0.034 | doramapimod 0.006 | ispinesib -0.03 | bafetinib -0.034 | [5] 0.008 | nilotinib -0.026 | [6] 0.042 | dasatinib 0.032 | [7] -0.004 | [8] -0.03 | [9] 0.032 | tipifarnib 0.038 | mubritinib -0.011

MMGT1 isoform 2 (UniProt Q8N4V1)
inactive: [1] -0.002 | crizotinib 0.066 | [2] 0.17 | [3] -0.021 | duvelisib 0.029 | gandotinib 0.003 | tozasertib 0 | [4] 0.003 | doramapimod 0.004 | ispinesib -0.016 | bafetinib -0.005 | [5] -0.004 | nilotinib -0.001 | [6] 0.012 | dasatinib 0.046 | [7] -0.052 | [8] 0.121 | [9] 0.051 | tipifarnib -0.011 | mubritinib 0.066

MRPL49 (UniProt Q13405)
inactive: [1] 0.035 | crizotinib 0.13 | [2] 0.043 | [3] 0.183 | duvelisib -0.09 | gandotinib 0.091 | tozasertib 0.067 | [4] 0 | doramapimod 0.086 | ispinesib -0.141 | bafetinib 0.052 | [5] 0.03 | nilotinib -0.042 | [6] 0.083 | dasatinib 0.118 | [7] -0.046 | [8] -0.106 | [9] 0.149 | tipifarnib 0.02 | mubritinib 0.034

MRPL53 (UniProt Q96EL3)
inactive: [1] 0.026 | crizotinib 0.108 | [2] 0.002 | [3] 0.163 | duvelisib -0.087 | gandotinib 0.101 | tozasertib 0.035 | [4] 0.073 | doramapimod 0.142 | ispinesib -0.107 | bafetinib 0.192 | [5] 0.177 | nilotinib -0.032 | [6] 0.149 | dasatinib 0.078 | [7] -0.068 | [8] -0.058 | [9] 0.041 | tipifarnib -0.019 | mubritinib 0.043

MRPL38 (UniProt Q96DV4)
inactive: [1] 0.028 | crizotinib 0.014 | [2] -0.125 | [3] 0.298 | duvelisib -0.138 | gandotinib 0.093 | tozasertib -0.017 | [4] 0.088 | doramapimod 0.138 | ispinesib -0.131 | bafetinib 0.168 | [5] 0.026 | nilotinib -0.047 | [6] 0.161 | dasatinib 0.011 | [7] -0.01 | [8] -0.16 | [9] -0.056 | tipifarnib 0.148 | mubritinib 0.055
